The whole screen tested about 320,000 compounds, of which about 2,100 (0.66%) were called active. The inconclusive results got no clear call from the source; some entries with a clear call stand among them for comparison. Calls come from the whole dose curve; as a rule, active = well fitted inhibition curve with a large enough effect in the signal ratio, with a control signal flat (not every such curve was filed as active); inconclusive = small, poorly fitted or top-dose-only effect, or effect the other way, or a change in a side signal; inactive = flat fitted curve, though single readings scatter; the % refers to the signal ratio. A potency beside an inconclusive call is a rough fit, not a confirmed value.
Assay: qHTS Assay for Lipid Storage Modulators in Drosophila S3 Cells
Details: BODIPY lipid droplet fluorescence, 18-24 h, cells fed with added oleic acid; lipid storage change, negative = inhibition: at 46.1 µM (top of the series) unless noted
Procedure, shortened: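 Drosophila S3 cells got compounds at several concentrations plus oleic acid (400 uM solution). Laser-scanning cytometry with 488 nm excitation read lipid droplets at 500-530 nm and cells at 575-640 nm. Percent activity was relative to 20 uM Triacsin C.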
% is set by controls: 0 for no effect and ±100 for the full control effect; potency is the fitted concentration of half-maximal effect.

Row | Structure (SMILES) | lipid storage change, negative = inhibition | Potency
1 | O=C(CS(=O)CC(=O)N(CC(=O)NC1CCCC1)c1ccc2c(c1)OCCO2)Nc1ccc(F)cc1 (stereo not given) | inactive: -7.01% | –
2 | CCCCCNC(=O)CCCCn1c(=O)[nH]c2cc(OCC)c(OCC)cc2c1=O | – | inconclusive: 0.184 µM [falling, full curve, poor fit]
3 | Cc1ccc(-c2nc(NC(=O)c3ccc(S(=O)(=O)N(CCC#N)CCC#N)cc3)sc2-c2ccccc2)cc1 | inconclusive: 51.1% [activator] | –
4 | CCN(CC)S(=O)(=O)c1ccc(C)c(NC(=O)CSc2nc3ccc(C)cc3[nH]2)c1 | inconclusive: -4.56% | –
5 | O=C(Cn1nc(-c2ccccc2)ccc1=O)NCC1CCCO1 (stereo not given) | inconclusive: 9.66% | –
6 | O=C(Cc1ccccc1F)Nc1nc(-c2cccs2)cs1 | – | inconclusive: 23.1 µM [activator, single point]
7 | Cn1c(=O)c2cc3c(nc2n(C)c1=O)CC(c1ccccc1)CC3=O (stereo not given) | inactive: -3.1% | –
8 | COc1cc(/C=N/n2c(-c3ccccc3)n[nH]c2=S)cc(OC)c1OC | inconclusive: -22.6% | –
9 | CC1(C)CC(=O)C/C(=N/Nc2nc3ccccc3s2)C1 | inconclusive: -9.18% | –
10 | CN1C(=O)[C@H]2[C@@H](C3CC3)N3C(=O)CN(CC4CC4)C(=O)[C@@]3(C)[C@H]2C1=O | inconclusive: 24.4% | –
11 | COCCn1c(=O)[nH]c(=O)c2c1nc(-c1ccc(-c3ccc(Cl)cc3[N+](=O)[O-])o1)n2Cc1ccccc1 | – | inconclusive: 2.91 µM [activator, partial curve]
12 | CN=C(Nc1cc(C)nn1CCC#N)c1ccc(F)cc1 | – | inconclusive: 0.651 µM [activator, single point]
13 | COC(=O)c1ccc(CN(C(C)=O)c2ccccc2)o1 | inconclusive: 6.05% | –
14 | Fc1ccc(Sc2nc(-c3ccccc3)nnc2C(F)(F)F)cc1 | – | inconclusive: 29.1 µM [falling, single point]
15 | COc1ccccc1CNC(=O)C(C)c1ccc([N+](=O)[O-])cc1 (stereo not given) | inconclusive: -39% [cytotoxic] [at 0.369 µM] | –
16 | O=C(OCc1c(-c2ccccc2)ncc2ccccc12)c1ccc(Br)cc1 | inconclusive: 8.05% | –
17 | Cc1cc(C(=O)COc2cccnc2[N+](=O)[O-])c(C)n1-c1ccccc1 | – | inconclusive: 29.1 µM [activator, single point]
18 | COC(=O)CCN(C)CCC(=O)OC | inconclusive: -4.29% | –
19 | CCOC(=O)c1ccc(NC(=S)N(CCCN2CCCCCC2)Cc2ccco2)cc1 | inconclusive: 17.9% | –
20 | CCNc1nc(Oc2c(Cl)cccc2Cl)cc(C(F)(F)F)n1 | – | inconclusive: 29.1 µM [falling, single point]
21 | Cc1cc2cc(C(=O)N3CCc4c([nH]c5ccccc45)C3c3ccccn3)ccc2o1 (stereo not given) | inconclusive: 3.25% | –
22 | O=C(COC(=O)CCN1C(=O)c2cccc([N+](=O)[O-])c2C1=O)NC1CCS(=O)(=O)C1 (stereo not given) | inconclusive: 42.3% | –
23 | COc1ccc(OC)c(NC(=O)COC(=O)c2c(C)noc2C)c1 | – | active: 4.61 µM
24 | O=C(N/N=C/c1ccc2c(c1)OCO2)c1ccc2c(c1)OCO2 | inconclusive: -32.9% [at 0.00295 µM] | –
25 | CCOC(=O)c1cccc(NC(=O)c2ccc(NC(=O)c3ccco3)cc2)c1 | inconclusive: -81.5% | –

Row | Structure (SMILES) | lipid storage change, negative = inhibition | Potency
26 | CCOC(=O)c1cncc(NC(=O)c2ccccc2)c1 | inconclusive: 24.4% | –
27 | COc1ccc(NC(=O)N/C=C/c2ccc(Cl)cc2)cc1 | inconclusive: -2.61% [at 9.22 µM] | –
28 | O=C(Nc1ccccc1)c1ccccc1OCc1ccc(F)cc1 | – | inconclusive: 6.51 µM [activator, single point]
29 | O=C(NC1CC(=O)N(c2ccccc2)C1)N1CCN(C(=O)c2ccco2)CC1 (stereo not given) | inconclusive: -10.2% | –
30 | CCCCNC(=O)N1CCN(C/C=C/c2ccccc2)CC1 | inconclusive: 39.3% | –
31 | CC(C)C(=O)Nc1cccc(C(=O)N2CCCCC2C)c1 (stereo not given) | inconclusive: -71% | –
32 | CCOC(=O)N1CCN(Cc2nc3cc(NC(=O)CC)ccc3n2C)CC1 | inconclusive: -32.7% | –
33 | CCc1ccc(S(=O)(=O)Nc2cccc(-c3ccc4nnc(C)n4n3)c2)s1 | inconclusive | –
34 | CC(C)OC(=O)CSc1nc2cccnc2n1C1CCCCC1 | – | inconclusive: 0.184 µM [activator, full curve, poor fit]
35 | COc1cc(/C=C/C(=O)O)cc(S(=O)(=O)Nc2cc(Cl)c(Cl)cc2Cl)c1OC | inconclusive: -3.34% | –
36 | Nc1nc(N)c(N=Nc2ccc(SCC(=O)O)cc2)c(=O)[nH]1 | – | inconclusive: 29.1 µM [cytotoxic, partial curve, poor fit]
37 | NNC(=O)c1cc(-c2ccccc2)sc1N | inconclusive: 8.91% | –
38 | Fc1ccc(Nc2nc(N3CCOCC3)nc(N3CCOCC3)n2)cc1 | – | inconclusive: 29.1 µM [activator, single point]
39 | O=C(C(Cc1ccccc1)NS(=O)(=O)c1cccc2cccnc12)N1CCc2ccccc21 (stereo not given) | inconclusive: -33.7% | –
40 | CCN(CC)CCCNC(=O)C1CCN(C(=O)c2oc3cc4sc(N(C)C)nc4cc3c2C)CC1 | inconclusive: 7.63% | –
41 | COc1ccc(NC(=O)c2cnc(C)cn2)cc1-n1cnnn1 | – | inconclusive: 8.2 µM [activator, partial curve]
42 | CC(C)(C)C1CCC2(CC1)SCC(=O)N2c1ccccc1 (stereo not given) | inactive: 9.11% | –
43 | COc1ccc(CSc2ccc(S(=O)(=O)N3CCCCC3)cn2)cc1F | – | inconclusive: 0.58 µM [activator, single point]
44 | COc1ccc2[nH]cc(S(=O)(=O)c3ccc(F)cc3)c(=O)c2c1 | inconclusive: -19.3% | –
45 | COc1ccc(C(=O)CSc2nnc(-c3ccccc3)o2)cc1 | inconclusive: -19.2% | –
46 | CN(C(=O)c1cccc(C(F)(F)F)c1)C1CCCc2ccccc21 (stereo not given) | – | inconclusive: 6.51 µM [activator, single point]
47 | Cc1ccc(Cl)cc1N1CCN(Cc2nnnn2Cc2ccco2)CC1 | – | inconclusive: 0.082 µM [falling, full curve, poor fit]
48 | Cc1ccc(NC(=O)CSc2nc3ncc(Cl)cc3[nH]2)c(C)c1 | inconclusive: -12.1% | –
49 | CC(=O)c1cccc(NC(=O)C2CC(=O)N(c3ccc4c(c3)OCCO4)C2)c1 (stereo not given) | – | inconclusive: 0.0052 µM [falling, full curve, poor fit]
50 | Cc1nnc(SCC(=O)N2CCOCC2)c2ccccc12 | inconclusive: -14.5% | –

Row | Structure (SMILES) | lipid storage change, negative = inhibition | Potency
51 | CCOC(=O)CSc1nnnn1-c1cc(OC)ccc1OC | inconclusive: 31.4% | –
52 | CN(CCNC(=O)c1cccc(N2CCCC2=O)c1)Cc1ccccc1 | – | inconclusive: 0.231 µM [falling, full curve, poor fit]
53 | CC(C)C(=O)Nc1nnc(CCN2CCOCC2)s1 | inconclusive: 11.9% | –
54 | CCOc1c(Br)cc(/C=C(\C#N)C(=O)NC2CC2)cc1OC | – | inconclusive: 6.51 µM [falling, single point]
55 | O=C(O)CC1(CC(=O)N2CCN(CCO)CC2)CCCC1 | inconclusive: -21.4% | –
56 | CC(=O)N1c2ccccc2NC2=C(C(=O)CCC2)C1c1ccc(F)cc1 (stereo not given) | inactive: 0.776% | –
57 | Cc1ccc(CNC(=O)CCS(=O)(=O)c2cc3c(cc2Cl)NC(=O)CO3)cc1 | – | inconclusive: 20.6 µM [falling, partial curve, poor fit]
58 | O=C1CN(S(=O)(=O)c2cc(C(F)(F)F)ccc2Cl)CCN1 | inconclusive: -0.71% | –
59 | CC(=O)N1C(=O)C2(C(C#N)=C(N)Oc3c2c(C)nn3-c2ccccc2)c2ccccc21 (stereo not given) | – | inconclusive: 0.0259 µM [falling, full curve, poor fit]
60 | COC(=O)N/N=C/c1cc(C)n(-c2cccc3ccccc23)c1C | inconclusive: 30.8% | –
61 | OCCOc1ccc(CN2CCN(CCCc3ccccc3)C(CCO)C2)cc1 (stereo not given) | – | inconclusive: 29.1 µM [falling, single point]
62 | CC(C)(C)C(=O)NC1(C(F)(F)F)NC(=O)N(c2ccc(F)cc2)C1=O (stereo not given) | inconclusive: 108% | –
63 | Cc1ccc(NC(=O)CSc2nnc(C)c(=O)n2N)cc1Cl | – | inconclusive: 6.51 µM [falling, partial curve]
64 | Cc1cccc(NC(=O)c2cnn(C)c2)c1C | – | inconclusive: 29.1 µM [activator, single point]
65 | O=c1[nH]nc(SCc2nnc(-c3ccc([N+](=O)[O-])cc3)o2)n1C1CCCCC1 | inconclusive: -18.7% | –
66 | Cn1cc(CN2CCC(N3CCNC(=O)CC3)CC2)c(-c2ccccc2F)n1 | inactive: -10.8% | –
67 | COc1cc2c(cc1OC)C1=C(C#N)CN(CC(=O)O)CN1CC2 | inconclusive: -5.75% [at 9.22 µM] | –
68 | Cc1c(Cl)cccc1NC(=S)Nn1cnnc1 | inconclusive: -17.6% | –
69 | Cn1c(N)c(C(=O)c2ccc(Oc3ccccc3)cc2)c(=O)n(C)c1=O | inconclusive: 18% | –
70 | CCOC(=O)C1CCN(c2ncnc3c(C)csc23)CC1 | – | inconclusive: 0.651 µM [falling, full curve]
71 | S=c1[nH]nc(-c2cccc(Cl)c2)n1Cc1ccccc1 | – | inconclusive: 20.6 µM [rising, single point]
72 | O=C(CCc1nnc(-c2ccc3c(c2)OCO3)o1)N1CCC(c2ccc(F)cc2)C1 (stereo not given) | inconclusive: 27.1% | –
73 | CCc1ccc(C(=O)N2CCN(c3ccc(NC(=O)c4ccco4)cc3)CC2)cc1 | – | inconclusive: 29.1 µM [falling, single point]
74 | O=C(c1cc(COc2ccc(F)cc2Cl)on1)N1CCCCCC1 | inconclusive: -30.5% | –
75 | COC(=O)C1Sc2[nH]c(=O)sc2C(c2ccc(Cl)cc2)C1C(=O)OC (stereo not given) | inconclusive: 56.9% [activator] | –

An excerpt from above in order of number of heavy atoms, descending:
Row | Structure (SMILES) | lipid storage change, negative = inhibition | Potency
66 | Cn1cc(CN2CCC(N3CCNC(=O)CC3)CC2)c(-c2ccccc2F)n1 | inactive: -10.8% | –
60 | COC(=O)N/N=C/c1cc(C)n(-c2cccc3ccccc23)c1C | inconclusive: 30.8% | –
54 | CCOc1c(Br)cc(/C=C(\C#N)C(=O)NC2CC2)cc1OC | – | inconclusive: 6.51 µM [falling, single point]
71 | S=c1[nH]nc(-c2cccc(Cl)c2)n1Cc1ccccc1 | – | inconclusive: 20.6 µM [rising, single point]
64 | Cc1cccc(NC(=O)c2cnn(C)c2)c1C | – | inconclusive: 29.1 µM [activator, single point]

— PubChem BioAssay AID2685 (National Center for Advancing Translational Sciences (NCATS), 2010)
